# Paper PMC11407766, “OsNF-YB7 inactivates OsGLK1 to inhibit chlorophyll biosynthesis in rice embryo”
# Target: T1, OsGLK1-MBP (Oryza sativa) (UniProt Q5Z5I4)
# T1 sequence (looked up): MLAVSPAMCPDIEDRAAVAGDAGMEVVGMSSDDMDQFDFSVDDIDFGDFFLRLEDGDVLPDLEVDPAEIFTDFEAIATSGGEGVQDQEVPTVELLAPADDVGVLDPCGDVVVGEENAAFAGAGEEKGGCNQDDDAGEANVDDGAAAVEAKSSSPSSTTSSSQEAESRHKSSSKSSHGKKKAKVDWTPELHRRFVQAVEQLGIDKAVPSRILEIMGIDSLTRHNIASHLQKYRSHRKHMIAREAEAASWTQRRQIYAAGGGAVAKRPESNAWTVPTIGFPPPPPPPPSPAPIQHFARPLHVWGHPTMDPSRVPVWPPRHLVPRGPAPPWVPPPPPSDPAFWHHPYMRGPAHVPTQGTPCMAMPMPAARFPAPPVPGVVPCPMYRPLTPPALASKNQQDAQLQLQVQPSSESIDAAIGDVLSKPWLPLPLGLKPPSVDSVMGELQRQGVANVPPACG
# Experiment: EMSA
# Details: with OsNF-YB7-His (2 or 4 uM proteins), inhibits OsGLK1 binding; Beyotime EMSA/Gel-Shift kit (GS009), manufacturer's conditions; 2 or 4 uM protein in Figure 6G; pH and temperature not stated; recombinant protein; residues 1-455; protein details: MBP (pMAL-c5X); label: biotin (3' hydroxyl end of both strands)
sequence,measurement,value
TACGAAAAAATATCCCACCACGTGTCGCTTTCACAGGACAAT (double strand) [OsPORA promoter probe],binding result,binds more weakly

# For at least one entry, the source does not settle the construct or the ends of the probe. The comparison behind a weaker result is the experiment's own reference, which may not be listed here. Where a protein sequence is shown, tags need not be part of it.
